Data: paper PMC8158957
No constants are given. Whether binding was seen depends on the method and setting. A result given as binding can be weak or reduced; the word gives no strength.

The chains behind the UniProt entries cited, without tags or fusion partners. Residues count along the entry.
UniProt P41916, residues 36-221: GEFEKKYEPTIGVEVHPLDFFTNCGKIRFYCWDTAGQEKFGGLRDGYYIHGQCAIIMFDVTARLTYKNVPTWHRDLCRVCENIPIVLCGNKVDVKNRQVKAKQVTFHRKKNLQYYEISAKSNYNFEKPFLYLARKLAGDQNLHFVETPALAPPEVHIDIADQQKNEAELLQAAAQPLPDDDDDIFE

Target: full-length tomato DEM1, yeast two-hybrid bait (tomato) (UniProt O04394)
Test: two-hybrid; pairwise test of the longest RAN1 prey against DEM baits; growth on quadruple dropout media (QDO), -W-L to select bait and prey vectors

binding: binds
Substance: Arabidopsis RAS-RELATED NUCLEAR PROTEIN 1 (RAN1), longest two-hybrid prey clone (C-terminal 186 amino acids) (from UniProt P41916 36-221) (domain or fragment)
